Source: the supplement of paper PMC7877785
± gives the uncertainty stated by the source. The uncertainty is large for many entries.

Assay: self-splicing fitness, log relative to wild type (ln ratio); higher = more splicing; Tetrahymena group I intron in knt gene, E. coli kanamycin selection, DiMSum; sequences stand for … in CUCUCU…GGAGGGAAAAGUUAUCAGGCAUGCACCUGGUAGCUAGUCUUUAAACCAAUAGAUUGCAUCGGUUUAAAAGGCAAGACCGUCAAAUUGCGGGAAAGGGGUCAACAGCCGUUCAGUACCAAGUCUCAGGGGAAACUUUGAGAUGGCCUUGCAAAGGGUAUGGUAAUAAGCUGACGGACAUGGUCCUAACCACGCAGCCAAGUCCUAAGUCAACAGAUCUUCUGUUGAUAUGGAUGCAGUUCACAGACUAAAUGUCGGUCGGGGAAGAUGUAUUCUUCUCAUAAGAUAUAGUCGGACCUCUCCUUAAUGGGAGCUAGCGGAUGAAGUGAUGCAACACUGGAGCCGCUGGGAACUAAUUUGUAUGCGAAAGUAUAUUGAUUAGUUUUGGAGUACUCGUGGUCG
How it was run: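 The eight P1ex-region nucleotides of an intron in the knt kanamycin-resistance gene on pET-22b(+) were all randomised and the library put into E. coli BL21(DE3). Six replicate transformations were grown overnight at 37°C or 30°C on LB agar with or without 25 μg/mL kanamycin, together with 100 μg/mL carbenicillin, 50 μM IPTG and 0.2% rhamnose. Colonies were pooled and amplicon-sequenced on an Illumina HiSeq 2500. Fitness from DiMSum is the error-weighted combination of wild-type-normalised replicate fold changes, kanamycin over none.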

Sequence	self-splicing fitness (ln) (30 °C)	self-splicing fitness (ln) (37 °C)
ACUGAGCAAUAUUACGGGAC	-2.98 ± 0.65	-1.43 ± 0.28
CAGAAGCAAUAUUACGCCGC		-2.5 ± 0.63
UGCGAGCAAUAUUACGACCC	-1.14 ± 0.76	
ACCAAGCAAUAUUACGUCAC	-3.68 ± 0.47	-2.89 ± 0.27
GGGGAGCAAUAUUACGCCUA	-0.849 ± 0.53	0.118 ± 0.61
GGGUAGCAAUAUUACGUACC	-2.52 ± 0.66	-1.39 ± 0.61
UGCCAGCAAUAUUACGAAUC		-2.77 ± 0.75
AUCGAGCAAUAUUACGCCAA	-2.44 ± 1.1	-1.31 ± 0.52
UCUGAGCAAUAUUACGGUAC		-0.95 ± 0.73
CCCAAGCAAUAUUACGCUCC	-3.31 ± 0.53	
AUAUAGCAAUAUUACGAGGC		-2.75 ± 0.53
CUUUAGCAAUAUUACGCCGG	-1.74 ± 0.16	-1.22 ± 0.19
GGUUAGCAAUAUUACGACCC		-1.24 ± 0.52
GACGAGCAAUAUUACGCCGG		-1.14 ± 0.54
CUACAGCAAUAUUACGAGGC	-3.28 ± 0.52	
GAGCAGCAAUAUUACGCGUG	-1.92 ± 0.15	-1.66 ± 0.18
UAGUAGCAAUAUUACGAAAU		-3.45 ± 0.73
CCAAAGCAAUAUUACGCCGC	-3.32 ± 0.53	
CAGAAGCAAUAUUACGCUGC	-3.96 ± 0.53	
AUGGAGCAAUAUUACGUACU	-0.848 ± 0.16	-0.491 ± 0.18
UCACAGCAAUAUUACGCAAU	-5.19 ± 0.51	
UUGGAGCAAUAUUACGCUCU		-1.92 ± 0.57
UAUUAGCAAUAUUACGCUAU	-2.85 ± 0.5	
GAUUAGCAAUAUUACGUAUC	-4.95 ± 0.51	
UUUGAGCAAUAUUACGAAAC	-2.84 ± 0.75	-0.693 ± 1.4
CUCUAGCAAUAUUACGGCAC		-3.48 ± 0.6

Sequence	self-splicing fitness (ln) (30 °C)	self-splicing fitness (ln) (37 °C)
CGCAAGCAAUAUUACGGGUG	-1.59 ± 0.062	-0.366 ± 0.08
GGGCAGCAAUAUUACGGGGU	-4.01 ± 0.74	
CUUCAGCAAUAUUACGGUCC		-1.79 ± 1.2
GCGGAGCAAUAUUACGGAGC		-1.13 ± 1.2
GCAGAGCAAUAUUACGACCA	-1.41 ± 0.72	-1.37 ± 0.57
GCCCAGCAAUAUUACGCCGC	-3.11 ± 0.74	-2.39 ± 1.1
CUUUAGCAAUAUUACGAUGC		-2.89 ± 0.53
CAGGAGCAAUAUUACGAUCC	-0.86 ± 0.91	
CGGAAGCAAUAUUACGGCGA		-1.32 ± 0.62
AAGGAGCAAUAUUACGUAGU	-5.31 ± 1	
UGAGAGCAAUAUUACGCCGG		-3.26 ± 0.73
UGAGAGCAAUAUUACGAUUC	-3.41 ± 0.73	
UGAUAGCAAUAUUACGAGCC		-1.1 ± 0.65
AAGUAGCAAUAUUACGGACC	-1.96 ± 0.7	
UUGUAGCAAUAUUACGCCGC	-3.87 ± 0.73	
AGAGAGCAAUAUUACGCACA		-1.25 ± 0.63
AGAGAGCAAUAUUACGCGGA	-3.92 ± 1	
CGUGAGCAAUAUUACGCACC		-2.44 ± 0.54
AUAGAGCAAUAUUACGAAGG	-3.04 ± 0.55	
GUGGAGCAAUAUUACGGGCG	-4.36 ± 1	-2.64 ± 1.1
UCUCAGCAAUAUUACGGCUC	-0.631 ± 0.87	
AGCGAGCAAUAUUACGUCUC	-3.21 ± 1.1	-2.54 ± 0.77
UAAGAGCAAUAUUACGCCCA	-2.62 ± 0.26	-2.09 ± 0.41
CUGCAGCAAUAUUACGGCAG	-2.63 ± 0.22	-2.27 ± 0.2
GUUUAGCAAUAUUACGCGGC		-1.33 ± 0.82
CAGGAGCAAUAUUACGGCUC	-3.48 ± 1.1	-2.48 ± 0.54

Quoted from the listing.
Entry for UUGUAGCAAUAUUACGCCGC under self-splicing fitness (ln) (30 °C): -3.87 ± 0.73
Entry for ACUGAGCAAUAUUACGGGAC under self-splicing fitness (ln) (30 °C): -2.98 ± 0.65

More results.

Sequence	self-splicing fitness (ln) (30 °C)	self-splicing fitness (ln) (37 °C)
UCGGAGCAAUAUUACGACCC	-1.93 ± 1.2	
GGCGAGCAAUAUUACGAGCU	-4.29 ± 0.52	-1.54 ± 0.67
GUGCAGCAAUAUUACGAUCC	-1.27 ± 1.4	-1.1 ± 0.92
CUUCAGCAAUAUUACGAGUC	-4.26 ± 0.52	
GUGUAGCAAUAUUACGUCAC	-2.41 ± 0.5	-2.39 ± 1.1
CGGGAGCAAUAUUACGCCCC		-0.693 ± 1.4
AUAGAGCAAUAUUACGAAGA		-0.693 ± 1.4
CAGAAGCAAUAUUACGGAAA	-1.74 ± 0.59	
GCGGAGCAAUAUUACGCGAG	-4.61 ± 0.72	
CCUGAGCAAUAUUACGAAAC		-2.2 ± 0.5
GCAAAGCAAUAUUACGCAGA	-3.4 ± 1.1	
AGAAAGCAAUAUUACGCCGC		-1.29 ± 0.58
UCGGAGCAAUAUUACGAAGA	-3.23 ± 0.61	
CCAAAGCAAUAUUACGCACC		-2.49 ± 0.62
AUUUAGCAAUAUUACGCCCA	-1.06 ± 0.26	-1.58 ± 0.27
GCGGAGCAAUAUUACGCCCG		-1.29 ± 1.2
UGAAAGCAAUAUUACGUGGG	-3.67 ± 0.2	-2.4 ± 0.17
UAUCAGCAAUAUUACGCUAG	-0.545 ± 0.1	-0.149 ± 0.12
AAAUAGCAAUAUUACGCGCA	-0.264 ± 0.092	-0.103 ± 0.11
UUUUAGCAAUAUUACGCCGC	-3.48 ± 1.1	-1.55 ± 0.59
UCAUAGCAAUAUUACGAAAA		-2.51 ± 0.61
AUGUAGCAAUAUUACGUCAA	-2.9 ± 0.3	-2.98 ± 0.35
GAAUAGCAAUAUUACGGGCG	-1.16 ± 0.078	-0.509 ± 0.1
CGACAGCAAUAUUACGCUCU	-1.69 ± 0.11	-0.145 ± 0.11
UAUGAGCAAUAUUACGAGCU	-2.71 ± 0.2	-2.09 ± 0.42
CGUUAGCAAUAUUACGGCUA		-2.77 ± 0.53
